Source: ChEMBL document CHEMBL3988442, “University of Dundee, Small-Polar-MMV Screening Library” (2021).

The chains behind the UniProt entries cited, without tags or fusion partners.
UniProt E9BF75, entry or part of it: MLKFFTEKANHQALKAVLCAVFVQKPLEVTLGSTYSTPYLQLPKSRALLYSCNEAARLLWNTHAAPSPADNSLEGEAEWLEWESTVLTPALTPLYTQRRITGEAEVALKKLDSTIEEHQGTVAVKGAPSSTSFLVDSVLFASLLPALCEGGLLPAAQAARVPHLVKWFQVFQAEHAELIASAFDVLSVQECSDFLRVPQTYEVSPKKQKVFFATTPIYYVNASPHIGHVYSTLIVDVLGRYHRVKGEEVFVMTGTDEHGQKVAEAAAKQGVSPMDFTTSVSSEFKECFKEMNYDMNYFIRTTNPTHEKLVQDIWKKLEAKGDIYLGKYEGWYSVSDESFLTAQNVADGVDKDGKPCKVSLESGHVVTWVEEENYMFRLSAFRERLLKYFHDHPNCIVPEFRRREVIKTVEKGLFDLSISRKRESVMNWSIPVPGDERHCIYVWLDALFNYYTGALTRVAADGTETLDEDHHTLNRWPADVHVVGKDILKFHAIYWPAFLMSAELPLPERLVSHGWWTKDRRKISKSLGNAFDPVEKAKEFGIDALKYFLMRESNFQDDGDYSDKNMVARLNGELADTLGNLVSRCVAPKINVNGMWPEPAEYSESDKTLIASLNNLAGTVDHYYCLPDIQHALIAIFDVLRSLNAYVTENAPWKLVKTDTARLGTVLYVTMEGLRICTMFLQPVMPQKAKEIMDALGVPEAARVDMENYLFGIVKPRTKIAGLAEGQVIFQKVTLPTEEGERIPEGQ

A: 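Methionyl-tRNA synthetase (putative), Leishmania donovani (UniProt E9BF75). Primary screen of methionyl-tRNA synthetase; the read-out is not stated. The test concentration is not given. Values are per cent inhibition. Of about 68,000 compounds tested this way, about 24 (0.035%) reached 50% or more in at least one test.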
B: 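Assay on Mycobacterium tuberculosis, filed only as a heat shock assay from Cornell; the read-out is not stated. The concentration is filed as 10 mM, unlikely as a test dose, so the dose is not known. The record gives no direction; compounds that gave an IC50 in retests scored well above the rest, so higher reads as stronger inhibition. About 69,000 compounds were tested under these conditions; 1.4% (about 930) showed 50% or more at least once.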

Results are percentages, as filed.
The controls that fix the scale are not given in the record; negative values are as filed.
This is an unselected part of the compounds tested.
A dash means the value is not listed here; it may have been measured.

| # | Compound | A | B |
|---|---|---|---|
| 1 | `CC(=O)N1CC=C(n2c(=O)[nH]c3ccccc32)CC1` | 15.28% | 23.3% |
| 2 | `CC(C)(C)CC(=O)NCC(=O)Nc1ccn(Cc2cccnc2)n1` | 13.03% | -15.08% |
| 3 | `CN(C)c1ncc(I)c(C2CCCN2C)n1` (stereo not shown) | 4.127% | - |
| 4 | `CC(C)CNC(=O)c1cn(-c2ccccn2)c(=O)c2ccccc12` | 18.33% | 8.5% |
| 5 | `Cc1cnn(CC(C)Nc2nc(C)cc(N(C)C)n2)c1` (stereo not shown) | 7.796% | -19.34% |
| 6 | `CC(C)N(CC(N)=O)Cc1csc(-c2ncccn2)n1` | 7.246% | 12.05% |
| 7 | `COCC1CC2(CCN(C(=O)c3occc3C)CC2)CN1C(C)C.O=C(O)C(F)(F)F` (stereo not shown) | - | -31.45% |
| 8 | `c1ccc2oc(CN3CCOC(Cn4cccn4)C3)nc2c1` (stereo not shown) | 18.23% | -3.548% |
| 9 | `CN(C)c1ncc2c(n1)CN(C1CC(C)(C)NC(C)(C)C1)C2=O` | -24.87% | -8.584% |
| 10 | `O=C(NCCCNc1cccnc1)c1ccc2nccn2c1` | 15.33% | -20.58% |
| 11 | `O=C1CCC2(CCN(Cc3nccs3)CC2)N1Cc1ccccc1` | 17.77% | - |
| 12 | `CCc1cnc(CCNC(=O)N2CCCC(c3ncc[nH]3)C2)s1` (stereo not shown) | 26.9% | 0.1775% |
| 13 | `CCN1CCC(N2CCC(c3nc(C)cc(C)n3)C2)CC1` (stereo not shown) | 17.02% | -12.8% |
| 14 | `Cl.O=C(CCN1CCCC1)Nc1c2c(cc3c1CCC3)CCC2` | - | -5.816% |
| 15 | `N#Cc1ccc(OC[C@]23COC[C@H]2CN(Cc2ccoc2)C3)nc1` | 17.5% | - |
| 16 | `O=C(O)[C@@H]1CN(C(=O)CSCC2CC2)C[C@H]1c1ccccn1` | 15.52% | -1.796% |
| 17 | `O=C(c1ccco1)N1CCCC2(CN(Cc3ccsc3)CCO2)C1` (stereo not shown) | 7.492% | - |
| 18 | `Cc1cc(NC(=O)C(C)N2CCN(c3nccs3)CC2)on1` (stereo not shown) | 7.311% | 18.39% |
| 19 | `CN1CC2(CCN(CC3CC3)CC2)COc2ccccc2S1(=O)=O` | 14.21% | - |
| 20 | `Cn1ccnc1-c1cn(CCc2nnc(N)s2)nn1` | 12.38% | -8.21% |
| 21 | `CN(C)S(=O)(=O)N1C[C@@H]2COC[C@]2(COc2ccccn2)C1` | 9.589% | - |
| 22 | `CN(Cc1ccco1)Cc1cncc2c1CCN(Cc1ccoc1)C2` | 5.685% | - |
| 23 | `[H][C@]12CCN(C(=O)c3cc(CN(CC)CC)c(CC)o3)C[C@]([H])(CC1)N2` | - | -18.46% |
| 24 | `Cc1noc(C)c1C(=O)N1CC[C@H]2C[C@@H](c3ccncn3)O[C@@H]2C1` | 15.88% | - |
| 25 | `CC(C)CN1CCC(NC(=O)c2ccc(F)cc2Cl)CC1` | 17.28% | 20.08% |
| 26 | `CC1N(CC2CC2)C(=O)COC12CCN(C(=O)c1ccno1)CC2` (stereo not shown) | 8.696% | 6.694% |
| 27 | `CN(C)CCn1cc(NC(=O)NC(C)(C)c2nccs2)cn1` | 8.791% | -18.15% |
| 28 | `CC(C)n1c2ccccc2c2c1cc(C(=O)O)n2C(=O)N(C)C` | 8.269% | 64.45% |
| 29 | `[H][C@@]12CCN(C(=O)c3cccc(C)n3)C[C@@]1([H])O[C@H](C)C2` | - | 3.998% |
| 30 | `CN(C)c1nc2sc(C(=O)N3CCNC(=O)CC3)cc2s1` | 15.41% | 3.24% |
| 31 | `CN(C)C(=O)COCc1cncc2c1CCN(Cc1ccccn1)C2` | 1.603% | - |
| 32 | `CN(C)C(=O)c1cn2cc(-c3cccc(Cl)c3)n(CC3CC3)c(=O)c2n1` | 16.37% | 6.451% |
| 33 | `CS(=O)(=O)c1ccc(O[C@H]2COCCN(Cc3ccncc3)C2)cc1` | 10.75% | -44.17% |
| 34 | `O=C1CCCN1Cc1nnn2c1CN(c1cccnc1)CCC2` | 4.945% | - |
| 35 | `Cn1cc(C2CCCN2C(=O)CCCc2cccs2)cn1` (stereo not shown) | 21.23% | -6.855% |
| 36 | `O=C(CCn1ncc2ccccc21)N1CCCC(Cc2cccnc2)C1` (stereo not shown) | 14.82% | -8.086% |
| 37 | `CN1CCO[C@@H]2CN(S(=O)(=O)c3ccccc3)C[C@@H]2C1` | 1.099% | - |
| 38 | `CN(Cc1cnccn1)C(=O)[C@@]12CNC[C@@H]1CN(Cc1ccccc1)C2` | 14.03% | - |
| 39 | `O=C(Cc1cnn(-c2ccccc2)n1)NC(C1CC1)C1CC1` | 14.78% | 9.826% |
| 40 | `CN(Cc1noc(C2CC2)n1)C1CCN(CCn2cccn2)C1` (stereo not shown) | 11.38% | 0.4681% |
| 41 | `COCCNC(=O)c1ccc2c(=O)n3c(nc2c1)CCN(C)CC3` | 9.841% | -12.34% |
| 42 | `c1ccc(COCC2CNCc3nccn3C2)nc1` (stereo not shown) | 3.986% | -27.83% |
| 43 | `O=C(CN1CCN(c2ccc3nncn3n2)CC1)NC1CCCC1` | 9.922% | 59.84% |
| 44 | `CO[C@H]1COCCN(Cc2c[nH]c3ccccc23)C1` | 9.341% | 82.59% |
| 45 | `O=C(COCC1CCCO1)N1CCCN(Cc2ccccc2F)CC1` (stereo not shown) | 12.27% | 11.34% |
| 46 | `Cc1ccc(C)c(C(O)CN(C)Cc2nnc3ccccn23)c1` (stereo not shown) | 8.108% | -13.62% |
| 47 | `Cl.[H][C@@]12CN(C3CCCC3)CC[C@]1([H])N(C(=O)C1CCC1)C[C@H]2c1ccsc1` | - | -4.778% |
| 48 | `COCCc1noc(CN2CCOC(CN(C)C)C2)n1` (stereo not shown) | 12.85% | 0.6346% |
| 49 | `O=C(CN1CCC[C@@H]1C(=O)O)NCCOc1cccc(C(F)(F)F)c1` | 23.43% | - |
| 50 | `Cc1nc(N2CCCC2)ncc1-c1cc(O)nc(N2CCCC2)n1` | 12.03% | 1.175% |
| 51 | `CC(=O)Nc1sc2c(c1C(=O)O)CCc1ccccc1-2` | 15.45% | 10.29% |
| 52 | `[H][C@]1([C@H](O)c2ccc(NC(C)=O)cc2)COCC(=O)N1CC(C)C` | - | -9.975% |
| 53 | `COc1ccc(OCC(=O)NS(=O)(=O)c2ccc(Br)s2)cc1` | -3.825% | -14.07% |
| 54 | `Cc1ccc(CC(=O)N2CCOC(c3nc(C)n[nH]3)C2)cn1` (stereo not shown) | 10.62% | -4.368% |
| 55 | `CCc1nc(NCCCn2cccn2)c2c(n1)c(C)nn2C` | 12.86% | -12.46% |
| 56 | `Cc1ccc(C(=O)N2CCN(C(=O)Cc3ccccn3)CC2)c(C)c1` | 11.75% | -4.592% |
| 57 | `Cc1cc(CN[C@@H](C)C(N)=O)c(C)s1` | 10.8% | 7.527% |
| 58 | `COc1cccc(CN2CCCC2c2c(C)nn(C)c2C)c1` (stereo not shown) | 7.042% | 27.85% |
| 59 | `O=C(NC1CC1)c1ccc2ccc(N3CCN(CC4CC4)CC3)n2c1` | 48.15% | 38.85% |
| 60 | `CCC(C)(NCC(=O)N(c1ccccc1)C(C)C)c1nc(C)cs1` (stereo not shown) | 5.576% | -11.9% |
| 61 | `COc1cncc(-n2ccnc2-c2ccc(C(=O)O)s2)c1` | 17.98% | -0.7571% |
| 62 | `Cc1cnn(CC2CCCN2Cc2coc(-c3cccs3)n2)c1` (stereo not shown) | 15.27% | -3.916% |
| 63 | `COc1ccccc1Oc1ncccc1CNC(=O)[C@@H](N)CCO` | 9.363% | -21.69% |
| 64 | `COCc1noc(-c2ccc(N3CCCC3c3nccs3)nc2)n1` (stereo not shown) | -1.099% | -5.155% |
| 65 | `CS(=O)(=O)c1ccc(CNC(=O)NCC2CCOC2)cc1` (stereo not shown) | 4.467% | 6.396% |
| 66 | `CCOc1ccc(CNCCCn2ccnc2)cc1Cl.Cl.Cl` | - | 3.194% |

The last 4 entries again:

Result for COc1ccccc1Oc1ncccc1CNC(=O)[C@@H](N)CCO was A: 9.363%; B: -21.69%.
Result for COCc1noc(-c2ccc(N3CCCC3c3nccs3)nc2)n1 (stereo not shown) was A: -1.099%; B: -5.155%.
Result for CS(=O)(=O)c1ccc(CNC(=O)NCC2CCOC2)cc1 (stereo not shown) was A: 4.467%; B: 6.396%.
Result for CCOc1ccc(CNCCCn2ccnc2)cc1Cl.Cl.Cl was B: 3.194%.